PubChem BioAssay AID1159599 – NIAID – 2016
Screen: 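Effect of knocking down TLR signalling components on Tnf reporter after LPS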. Cell system: mouse RAW264.7 G9 macrophage reporter clone cells. Reagent: single siRNA against mouse genes. Timing: 48 to 72 h after siRNA transfection, LPS for the last 16 h. Conditions: LPS (Salmonella minnesota R595), 16 h before fixation; dose not stated. Measurement: 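High-content imaging of red fluorescence driven by the Tnf promoter after LPS, background subtracted, scored per siRNA as a plate-wise median/MAD robust z-score, replicate mean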. Reading the numbers: Tnf reporter z-score: higher = stronger Tnf promoter reporter signal after LPS. Call rule: 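Called active if the mean z-score over replicates passes 1.5 in either direction, up or down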. Calls: active = strong change either way; inactive = little change.
In all, the deposit lists 756 reagents; shown is an unselected part. In the full data, 130 (17%) got an active call. 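Calls are two-sided: actives include siRNAs that raised the Tnf reporter as well as ones that lowered it.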 The numbers tell different reagents against one gene apart. Not given: the amount of reagent.

| gene knocked down | reagent | Tnf reporter z-score, replicate mean | Outcome |
| --- | --- | --- | --- |
| Cxcl9 (C-X-C motif chemokine ligand 9) | 1 | -1.11 | inactive |
| Cxcl9 (C-X-C motif chemokine ligand 9) | 2 | 0.536 | inactive |
| Cxcl9 (C-X-C motif chemokine ligand 9) | 3 | 0.278 | inactive |
| Cxcl9 (C-X-C motif chemokine ligand 9) | 4 | -1.34 | inactive |
| Cxcl9 (C-X-C motif chemokine ligand 9) | 5 | -0.0468 | inactive |
| Cxcl9 (C-X-C motif chemokine ligand 9) | 6 | 0.45 | inactive |
| Ikbke (inhibitor of kappaB kinase epsilon) | 1 | -1.37 | inactive |
| Ikbke (inhibitor of kappaB kinase epsilon) | 2 | -0.853 | inactive |
| Ikbke (inhibitor of kappaB kinase epsilon) | 3 | -1.37 | inactive |
| Ikbke (inhibitor of kappaB kinase epsilon) | 4 | -1.92 | active |
| Ikbke (inhibitor of kappaB kinase epsilon) | 5 | -0.247 | inactive |
| Ikbke (inhibitor of kappaB kinase epsilon) | 6 | -1.57 | active |
| Rela (Rela proto-oncogene, NFKB subunit) | 1 | -0.301 | inactive |
| Rela (Rela proto-oncogene, NFKB subunit) | 2 | 0.564 | inactive |
| Rela (Rela proto-oncogene, NFKB subunit) | 3 | -1.12 | inactive |
| Rela (Rela proto-oncogene, NFKB subunit) | 4 | -1.81 | active |
| Rela (Rela proto-oncogene, NFKB subunit) | 5 | -0.224 | inactive |
| Rela (Rela proto-oncogene, NFKB subunit) | 6 | -0.814 | inactive |
| Cxcl11 (chemokine (C-X-C motif) ligand 11) | 1 | -0.323 | inactive |
| Cxcl11 (chemokine (C-X-C motif) ligand 11) | 2 | -0.585 | inactive |
| Cxcl11 (chemokine (C-X-C motif) ligand 11) | 3 | 0.109 | inactive |
| Cxcl11 (chemokine (C-X-C motif) ligand 11) | 4 | -0.217 | inactive |
| Cxcl11 (chemokine (C-X-C motif) ligand 11) | 5 | -0.245 | inactive |
| Cxcl11 (chemokine (C-X-C motif) ligand 11) | 6 | -1.56 | active |
| Mapk11 (mitogen-activated protein kinase 11) | 1 | 0.696 | inactive |
| Mapk11 (mitogen-activated protein kinase 11) | 2 | -1.42 | inactive |
| Mapk11 (mitogen-activated protein kinase 11) | 3 | 1.21 | inactive |
| Mapk11 (mitogen-activated protein kinase 11) | 4 | -0.333 | inactive |
| Mapk11 (mitogen-activated protein kinase 11) | 5 | -1.58 | active |
| Mapk11 (mitogen-activated protein kinase 11) | 6 | -0.258 | inactive |
| Mapk9 (mitogen-activated protein kinase 9) | 1 | -0.333 | inactive |
| Mapk9 (mitogen-activated protein kinase 9) | 2 | -1.05 | inactive |
| Mapk9 (mitogen-activated protein kinase 9) | 3 | -1.5 | active |
| Mapk9 (mitogen-activated protein kinase 9) | 4 | 0.935 | inactive |
| Mapk9 (mitogen-activated protein kinase 9) | 5 | -1.2 | inactive |
| Mapk9 (mitogen-activated protein kinase 9) | 6 | 1.15 | inactive |
| Pik3r1 (phosphoinositide-3-kinase regulatory subunit 1) | 1 | -0.521 | inactive |
| Pik3r1 (phosphoinositide-3-kinase regulatory subunit 1) | 2 | -0.473 | inactive |
| Pik3r1 (phosphoinositide-3-kinase regulatory subunit 1) | 3 | -0.13 | inactive |
| Pik3r1 (phosphoinositide-3-kinase regulatory subunit 1) | 4 | -0.00905 | inactive |
| Pik3r1 (phosphoinositide-3-kinase regulatory subunit 1) | 5 | -0.449 | inactive |
| Pik3r1 (phosphoinositide-3-kinase regulatory subunit 1) | 6 | -0.39 | inactive |
| Stat1 (signal transducer and activator of transcription 1) | 1 | 0.49 | inactive |
| Stat1 (signal transducer and activator of transcription 1) | 2 | 0.727 | inactive |
| Stat1 (signal transducer and activator of transcription 1) | 3 | 0.141 | inactive |
| Stat1 (signal transducer and activator of transcription 1) | 4 | -0.398 | inactive |
| Stat1 (signal transducer and activator of transcription 1) | 5 | -0.765 | inactive |
| Stat1 (signal transducer and activator of transcription 1) | 6 | -1.73 | active |
| Tab3 (TGF-beta activated kinase 1/MAP3K7 binding protein 3) | 1 | -0.434 | inactive |
| Tab3 (TGF-beta activated kinase 1/MAP3K7 binding protein 3) | 2 | -0.256 | inactive |
| Tab3 (TGF-beta activated kinase 1/MAP3K7 binding protein 3) | 3 | -0.885 | inactive |
| Tab3 (TGF-beta activated kinase 1/MAP3K7 binding protein 3) | 4 | 0.767 | inactive |
| Tab3 (TGF-beta activated kinase 1/MAP3K7 binding protein 3) | 5 | -0.252 | inactive |
| Tab3 (TGF-beta activated kinase 1/MAP3K7 binding protein 3) | 6 | -0.0927 | inactive |
| Dab2ip (disabled 2 interacting protein) | 1 | 0.163 | inactive |
| Dab2ip (disabled 2 interacting protein) | 2 | -0.685 | inactive |
| Dab2ip (disabled 2 interacting protein) | 3 | 1.41 | inactive |
| Dab2ip (disabled 2 interacting protein) | 4 | -1.24 | inactive |
| Dab2ip (disabled 2 interacting protein) | 5 | -1.4 | inactive |
| Dab2ip (disabled 2 interacting protein) | 6 | 1.06 | inactive |
| Itgax (integrin alpha X) | 1 | 1.58 | active |
| Itgax (integrin alpha X) | 2 | -0.298 | inactive |
| Itgax (integrin alpha X) | 3 | -0.919 | inactive |
| Itgax (integrin alpha X) | 4 | 0.275 | inactive |
| Itgax (integrin alpha X) | 5 | -0.165 | inactive |
| Itgax (integrin alpha X) | 6 | -0.456 | inactive |
| Il12b (interleukin 12b) | 1 | -2.14 | active |
| Il12b (interleukin 12b) | 2 | -0.0468 | inactive |
| Il12b (interleukin 12b) | 3 | -0.213 | inactive |
| Il12b (interleukin 12b) | 4 | 0.876 | inactive |
| Il12b (interleukin 12b) | 5 | -1.11 | inactive |
| Il12b (interleukin 12b) | 6 | 0.184 | inactive |
| Elk1 (ETS transcription factor ELK1) | 1 | -1.16 | inactive |
| Elk1 (ETS transcription factor ELK1) | 2 | 0.02 | inactive |
| Elk1 (ETS transcription factor ELK1) | 3 | 0.00714 | inactive |
| Elk1 (ETS transcription factor ELK1) | 4 | -2.12 | active |
| Elk1 (ETS transcription factor ELK1) | 5 | -1.68 | active |
| Elk1 (ETS transcription factor ELK1) | 6 | -0.553 | inactive |
| Ly96 (lymphocyte antigen 96) | 1 | 0.0627 | inactive |
| Ly96 (lymphocyte antigen 96) | 2 | -2.11 | active |
| Ly96 (lymphocyte antigen 96) | 3 | -0.861 | inactive |
| Ly96 (lymphocyte antigen 96) | 4 | -0.65 | inactive |
| Ly96 (lymphocyte antigen 96) | 5 | -1.07 | inactive |
| Ly96 (lymphocyte antigen 96) | 6 | -0.823 | inactive |
| Tbkbp1 (TBK1 binding protein 1) | 1 | 0.449 | inactive |
| Tbkbp1 (TBK1 binding protein 1) | 2 | -0.559 | inactive |
| Tbkbp1 (TBK1 binding protein 1) | 3 | 0.649 | inactive |
| Tbkbp1 (TBK1 binding protein 1) | 4 | 0.153 | inactive |
| Tbkbp1 (TBK1 binding protein 1) | 5 | 0.409 | inactive |
| Tbkbp1 (TBK1 binding protein 1) | 6 | -0.218 | inactive |
| Ifnar2 (interferon (alpha and beta) receptor 2) | 1 | -0.767 | inactive |
| Ifnar2 (interferon (alpha and beta) receptor 2) | 2 | -0.799 | inactive |
| Ifnar2 (interferon (alpha and beta) receptor 2) | 3 | -0.101 | inactive |
| Ifnar2 (interferon (alpha and beta) receptor 2) | 4 | 0.166 | inactive |
| Ifnar2 (interferon (alpha and beta) receptor 2) | 5 | 0.341 | inactive |
| Ifnar2 (interferon (alpha and beta) receptor 2) | 6 | -0.742 | inactive |
| Ikbkg (inhibitor of kappaB kinase gamma) | 1 | 0.221 | inactive |
| Ikbkg (inhibitor of kappaB kinase gamma) | 2 | -1.55 | active |
| Ikbkg (inhibitor of kappaB kinase gamma) | 3 | -1.23 | inactive |
| Ikbkg (inhibitor of kappaB kinase gamma) | 4 | -3.03 | active |
| Ikbkg (inhibitor of kappaB kinase gamma) | 5 | -1.84 | active |
| Ikbkg (inhibitor of kappaB kinase gamma) | 6 | -0.812 | inactive |
| Elf4 (E74 like ETS transcription factor 4) | 1 | -0.655 | inactive |
| Elf4 (E74 like ETS transcription factor 4) | 2 | -0.726 | inactive |
| Elf4 (E74 like ETS transcription factor 4) | 3 | -0.276 | inactive |
| Elf4 (E74 like ETS transcription factor 4) | 4 | -0.526 | inactive |
| Elf4 (E74 like ETS transcription factor 4) | 5 | -1.55 | active |
| Elf4 (E74 like ETS transcription factor 4) | 6 | -0.17 | inactive |
| Crebbp (CREB binding protein) | 1 | 0.832 | inactive |
| Crebbp (CREB binding protein) | 2 | -1.49 | inactive |
| Crebbp (CREB binding protein) | 3 | -1.59 | active |
| Crebbp (CREB binding protein) | 4 | 0.284 | inactive |
| Crebbp (CREB binding protein) | 5 | -1.57 | active |
| Crebbp (CREB binding protein) | 6 | -0.727 | inactive |
| Pik3cb | 1 | 1.56 | active |
| Pik3cb | 2 | -0.998 | inactive |
| Pik3cb | 3 | -1.3 | inactive |
| Pik3cb | 4 | -0.379 | inactive |
| Pik3cb | 5 | -2.54 | active |
| Pik3cb | 6 | -1.68 | active |
| Map2k2 (mitogen-activated protein kinase kinase 2) | 1 | 0.62 | inactive |
| Map2k2 (mitogen-activated protein kinase kinase 2) | 2 | -1.16 | inactive |
| Map2k2 (mitogen-activated protein kinase kinase 2) | 3 | -0.661 | inactive |
| Map2k2 (mitogen-activated protein kinase kinase 2) | 4 | -0.402 | inactive |
| Map2k2 (mitogen-activated protein kinase kinase 2) | 5 | -0.0411 | inactive |
| Map2k2 (mitogen-activated protein kinase kinase 2) | 6 | -1.85 | active |
| Pik3r2 (phosphoinositide-3-kinase regulatory subunit 2) | 1 | -0.0796 | inactive |
| Pik3r2 (phosphoinositide-3-kinase regulatory subunit 2) | 2 | -0.501 | inactive |
| Pik3r2 (phosphoinositide-3-kinase regulatory subunit 2) | 3 | -0.5 | inactive |
| Pik3r2 (phosphoinositide-3-kinase regulatory subunit 2) | 4 | 0.994 | inactive |
| Pik3r2 (phosphoinositide-3-kinase regulatory subunit 2) | 5 | 0.4 | inactive |
| Pik3r2 (phosphoinositide-3-kinase regulatory subunit 2) | 6 | -0.579 | inactive |
| Cd180 (CD180 antigen) | 1 | -0.000347 | inactive |
| Cd180 (CD180 antigen) | 2 | 0.341 | inactive |
| Cd180 (CD180 antigen) | 3 | -0.675 | inactive |
| Cd180 (CD180 antigen) | 4 | -1.31 | inactive |
| Cd180 (CD180 antigen) | 5 | -1.57 | active |
| Cd180 (CD180 antigen) | 6 | -0.295 | inactive |
| Jun (Jun proto-oncogene, AP-1 transcription factor subunit) | 1 | -1.51 | active |
| Jun (Jun proto-oncogene, AP-1 transcription factor subunit) | 2 | -1.05 | inactive |
| Jun (Jun proto-oncogene, AP-1 transcription factor subunit) | 3 | -0.983 | inactive |
| Jun (Jun proto-oncogene, AP-1 transcription factor subunit) | 4 | -0.853 | inactive |
| Jun (Jun proto-oncogene, AP-1 transcription factor subunit) | 5 | -1.08 | inactive |
| Jun (Jun proto-oncogene, AP-1 transcription factor subunit) | 6 | -0.153 | inactive |

A run of entries of the results above, as a working copy:
| gene knocked down | reagent | Tnf reporter z-score, replicate mean | Outcome |
| --- | --- | --- | --- |
| Dab2ip (disabled 2 interacting protein) | 4 | -1.24 | inactive |
| Dab2ip (disabled 2 interacting protein) | 5 | -1.4 | inactive |
| Dab2ip (disabled 2 interacting protein) | 6 | 1.06 | inactive |
| Itgax (integrin alpha X) | 1 | 1.58 | active |
| Itgax (integrin alpha X) | 2 | -0.298 | inactive |
| Itgax (integrin alpha X) | 3 | -0.919 | inactive |
| Itgax (integrin alpha X) | 4 | 0.275 | inactive |
| Itgax (integrin alpha X) | 5 | -0.165 | inactive |
| Itgax (integrin alpha X) | 6 | -0.456 | inactive |
| Il12b (interleukin 12b) | 1 | -2.14 | active |
| Il12b (interleukin 12b) | 2 | -0.0468 | inactive |
| Il12b (interleukin 12b) | 3 | -0.213 | inactive |
| Il12b (interleukin 12b) | 4 | 0.876 | inactive |
| Il12b (interleukin 12b) | 5 | -1.11 | inactive |
| Il12b (interleukin 12b) | 6 | 0.184 | inactive |
| Elk1 (ETS transcription factor ELK1) | 1 | -1.16 | inactive |
